Results: patent US4146628A, “Antiarrhythmic quinuclidine carboxylic acid xylidide and method of producing the same and similar compounds” (priority 1977, dated 1979)
Counter-ions that a name gives are not always drawn. At least one read-out could not be matched to a standard name with certainty.

How the values were obtained:
[1] = Occlusion-induced arrhythmias in conscious dogs, parenteral administration
Description: The effect of parenteral administration of Compound I on occlusion-induced arrhythmias in conscious dogs was determined. Occulsion was achieved by ligation of the left anteria descending coronary artery on 5 dogs.
Compound I was administered once within 24 hours and once within 48 hours after ligation.

[2] = Pharmacokinetic parameters in conscious dogs with occlusion-induced arrhythmia; assay type: in vivo
Description: The pharmacokinetic parameters of Compound I were determined in conscious dogs suffering from occlusion-induced arrhythmia. After intravenous injection of a single therapeutic dose, venous blood samples were withdrawn at given intervals, heparinized and analyzed for their content of Compound I by gas chromatography.

Cc1cccc(C)c1NC(=O)C1CN2CCC1CC2 (stereo not shown) [Compound I, 2,6-xylidide of quinuclidine-3-carboxylic acid hydrochloride]
Therapeutic blood levels ([1]; 1.5 mg/kg, next 24 hours): 2.5 μg/cc blood
Therapeutic blood levels ([1]; 3 mg/kg i.v., first 24 hours): 5 μg/cc blood
Therapeutic body levels ([2]; i.v. single therapeutic dose, conscious arrhythmic dogs): 2.5 to 5 µg/mL
Therapeutic blood levels ([2]; summary table): 2.5 to 5 µg/mL
